Consider one substance from article doi:10.1101/149351.

Sequences of proteins named here, by UniProt entry; tags and fusion partners are left off.
UniProt P35222: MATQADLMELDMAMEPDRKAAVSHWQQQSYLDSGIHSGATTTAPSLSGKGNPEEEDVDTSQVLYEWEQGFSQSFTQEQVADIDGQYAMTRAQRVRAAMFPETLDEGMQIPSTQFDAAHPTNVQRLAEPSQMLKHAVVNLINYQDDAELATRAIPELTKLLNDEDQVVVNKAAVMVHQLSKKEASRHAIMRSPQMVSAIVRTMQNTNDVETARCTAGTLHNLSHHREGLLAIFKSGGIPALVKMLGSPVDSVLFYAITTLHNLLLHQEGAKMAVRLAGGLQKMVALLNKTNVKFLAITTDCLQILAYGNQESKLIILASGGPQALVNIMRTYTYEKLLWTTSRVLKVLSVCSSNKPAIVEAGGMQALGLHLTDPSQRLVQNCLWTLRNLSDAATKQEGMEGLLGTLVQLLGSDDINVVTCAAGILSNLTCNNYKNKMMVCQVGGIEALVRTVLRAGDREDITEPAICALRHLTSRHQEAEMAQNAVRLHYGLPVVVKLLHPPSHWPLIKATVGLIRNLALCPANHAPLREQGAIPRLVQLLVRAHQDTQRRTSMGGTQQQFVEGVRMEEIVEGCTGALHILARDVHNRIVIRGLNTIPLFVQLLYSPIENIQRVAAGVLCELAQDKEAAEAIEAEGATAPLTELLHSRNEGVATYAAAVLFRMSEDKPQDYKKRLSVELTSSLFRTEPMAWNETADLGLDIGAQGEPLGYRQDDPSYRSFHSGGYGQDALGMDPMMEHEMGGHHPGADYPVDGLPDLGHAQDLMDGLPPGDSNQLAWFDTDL
UniProt Q9P219: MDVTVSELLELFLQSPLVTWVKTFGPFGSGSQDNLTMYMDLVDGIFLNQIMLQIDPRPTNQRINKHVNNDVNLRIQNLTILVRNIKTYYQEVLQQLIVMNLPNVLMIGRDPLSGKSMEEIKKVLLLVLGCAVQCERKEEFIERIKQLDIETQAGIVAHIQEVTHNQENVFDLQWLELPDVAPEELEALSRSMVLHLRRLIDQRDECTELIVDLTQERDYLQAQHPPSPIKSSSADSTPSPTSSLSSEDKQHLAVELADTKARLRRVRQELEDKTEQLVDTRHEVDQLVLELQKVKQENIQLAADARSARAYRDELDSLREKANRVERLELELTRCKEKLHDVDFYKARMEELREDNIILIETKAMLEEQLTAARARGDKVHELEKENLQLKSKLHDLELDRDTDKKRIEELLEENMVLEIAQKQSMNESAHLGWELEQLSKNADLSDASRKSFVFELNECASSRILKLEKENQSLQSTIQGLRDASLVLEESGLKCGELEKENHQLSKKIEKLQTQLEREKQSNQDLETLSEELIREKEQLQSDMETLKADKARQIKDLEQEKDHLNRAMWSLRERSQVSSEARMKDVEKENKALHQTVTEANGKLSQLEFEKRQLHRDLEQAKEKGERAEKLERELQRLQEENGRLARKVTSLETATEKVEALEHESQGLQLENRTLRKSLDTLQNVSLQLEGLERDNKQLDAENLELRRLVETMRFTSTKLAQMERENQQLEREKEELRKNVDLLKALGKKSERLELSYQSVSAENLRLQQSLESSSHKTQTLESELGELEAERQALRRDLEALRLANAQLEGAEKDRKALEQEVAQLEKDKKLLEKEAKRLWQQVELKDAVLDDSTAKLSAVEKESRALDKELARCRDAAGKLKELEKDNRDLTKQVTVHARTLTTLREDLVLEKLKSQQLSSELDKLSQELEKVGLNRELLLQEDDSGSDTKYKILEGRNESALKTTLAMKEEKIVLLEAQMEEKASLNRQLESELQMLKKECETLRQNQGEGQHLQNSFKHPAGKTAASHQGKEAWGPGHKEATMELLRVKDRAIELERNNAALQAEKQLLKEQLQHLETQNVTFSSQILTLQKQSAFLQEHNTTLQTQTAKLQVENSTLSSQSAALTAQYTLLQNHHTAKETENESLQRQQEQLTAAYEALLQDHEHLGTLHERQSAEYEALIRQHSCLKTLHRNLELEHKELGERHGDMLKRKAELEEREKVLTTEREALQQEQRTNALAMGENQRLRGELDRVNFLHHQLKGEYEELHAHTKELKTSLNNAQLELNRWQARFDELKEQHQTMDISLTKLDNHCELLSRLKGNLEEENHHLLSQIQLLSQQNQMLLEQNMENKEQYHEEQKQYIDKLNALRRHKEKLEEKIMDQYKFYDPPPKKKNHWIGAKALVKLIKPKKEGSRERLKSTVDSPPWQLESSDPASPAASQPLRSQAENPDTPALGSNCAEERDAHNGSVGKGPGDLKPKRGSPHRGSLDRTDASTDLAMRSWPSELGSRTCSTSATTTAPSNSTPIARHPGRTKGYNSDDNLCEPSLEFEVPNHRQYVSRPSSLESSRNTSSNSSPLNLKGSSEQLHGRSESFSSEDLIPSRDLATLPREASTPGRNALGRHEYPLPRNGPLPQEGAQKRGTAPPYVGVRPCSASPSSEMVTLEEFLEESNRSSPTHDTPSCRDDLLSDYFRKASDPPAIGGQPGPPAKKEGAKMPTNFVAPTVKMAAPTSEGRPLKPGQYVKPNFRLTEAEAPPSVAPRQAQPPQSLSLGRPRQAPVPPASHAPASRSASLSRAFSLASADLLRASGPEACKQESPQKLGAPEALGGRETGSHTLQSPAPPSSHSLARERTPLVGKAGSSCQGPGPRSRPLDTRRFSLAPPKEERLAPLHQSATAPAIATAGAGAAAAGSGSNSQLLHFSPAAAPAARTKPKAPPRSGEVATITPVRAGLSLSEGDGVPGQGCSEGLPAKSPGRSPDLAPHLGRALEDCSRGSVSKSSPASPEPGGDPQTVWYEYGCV

No constants are given. Whether binding was seen depends on the method and setting. In cells and extracts the contact can be indirect. Some entries that bind do so weakly or less than the wild type.

The assay deals with β-catenin (human (endogenous in HeLa)) (UniProt P35222). Briefly: co-IP.

As to “myc-Daple-WT (from UniProt Q9P219 1-2028)”, the binding result is on record as “binds”.
